PubChem BioAssay AID1259331, Drosophila RNAi Screening Center | 2017

Assay: 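Genes whose knock-down changes cell survival under toxic zinc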 (primary screen)
System: Drosophila S2R+ cells
Reagents: long dsRNA against Drosophila genes
Timing: 5 days (4 days knock-down, then 1 day zinc)
Challenge: zinc chloride at 15 mM final level for 1 day
Detection: 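Luminescent ATP assay standing in for viability; Z score is the mean over three replicate plates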
Scale: mean Z score: higher = more ATP than other wells, better survival under zinc; ATP luminescence: higher = more ATP, more viable cells
Call rule: 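Hit when the absolute Z score is greater than 1.5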
Meaning of the calls: active = hit, ATP up or down; inactive = not a hit
The whole screen tested about 3,100 reagents; below is a random part of them. Over the whole deposit, 126 (4.1%) are marked active. 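Calls are per reagent; zinc was so toxic that few knock-downs lowered ATP further, so most hits raise ATP.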 The raw values are shown without normalisation. Entries without a mark were called inactive. Not stated in the record: the amount of reagent.

l(2)03659 (GeneID 47905) [DRSC07269] showed mean Z score -0.54; ATP luminescence, replicate 1 = 83237; ATP luminescence, replicate 2 = 61901.
With knock-down of l(2)03659 (GeneID 47905) [DRSC07638] the results were mean Z score 0.0348; ATP luminescence, replicate 1 = 41119; ATP luminescence, replicate 2 = 44891.
With knock-down of CG8630 (GeneID 41629) [DRSC16441], the screen gave mean Z score 1.7 (active); ATP luminescence, replicate 1 = 44771; ATP luminescence, replicate 2 = 84970.
Against CG8630 (GeneID 41629) [DRSC24081], the entry reads mean Z score 1.11; ATP luminescence, replicate 1 = 66649; ATP luminescence, replicate 2 = 74867.
Against CG14744 (GeneID 35858) [DRSC06480], the entry reads mean Z score -0.282; ATP luminescence, replicate 1 = 70527; ATP luminescence, replicate 2 = 66205.
After knock-down of 18w (GeneID 37277) [DRSC29700] the results were mean Z score 0.271; ATP luminescence, replicate 1 = 53018; ATP luminescence, replicate 2 = 78343.
Against CG10337 (GeneID 35247) [DRSC02038], the values are mean Z score -0.417; ATP luminescence, replicate 1 = 36696; ATP luminescence, replicate 2 = 56465.
CG10337 (GeneID 35247) [DRSC39603] showed mean Z score 0.613; ATP luminescence, replicate 1 = 71591; ATP luminescence, replicate 2 = 68246.
FucT6 (GeneID 32122) [DRSC19848] showed mean Z score -0.418; ATP luminescence, replicate 1 = 41616; ATP luminescence, replicate 2 = 40416.
FucT6 (GeneID 32122) [DRSC26057] showed mean Z score 0.104; ATP luminescence, replicate 1 = 55459; ATP luminescence, replicate 2 = 57374.
Knock-down of CG8389 (GeneID 36764) [DRSC22855] gave: mean Z score -0.0881; ATP luminescence, replicate 1 = 47600; ATP luminescence, replicate 2 = 43982.
Against CG8389 (GeneID 36764) [DRSC28233], the entry reads mean Z score 0.169; ATP luminescence, replicate 1 = 58866; ATP luminescence, replicate 2 = 69237.
Silencing of CG8046 (GeneID 35936) [DRSC07059] gave: mean Z score -0.255; ATP luminescence, replicate 1 = 29530; ATP luminescence, replicate 2 = 28634.
Silencing of comm (GeneID 39717) [DRSC11336] resulted in: mean Z score -0.157; ATP luminescence, replicate 1 = 69698; ATP luminescence, replicate 2 = 63136.
Silencing of comm (GeneID 39717) [DRSC24259] came out at: mean Z score 0.174; ATP luminescence, replicate 1 = 60718; ATP luminescence, replicate 2 = 57854.
After knock-down of CG31431 (GeneID 326138) [DRSC14589], the screen gave mean Z score -0.129; ATP luminescence, replicate 1 = 39045; ATP luminescence, replicate 2 = 53738.
CG31431 (GeneID 326138) [DRSC39614] gave mean Z score -0.196; ATP luminescence, replicate 1 = 61318; ATP luminescence, replicate 2 = 55059.
Silencing of Task7 (GeneID 41125) [DRSC16477] resulted in: mean Z score -0.111; ATP luminescence, replicate 1 = 35085; ATP luminescence, replicate 2 = 57099.
Silencing of Task7 (GeneID 41125) [DRSC26662] resulted in: mean Z score 0.0826; ATP luminescence, replicate 1 = 58643; ATP luminescence, replicate 2 = 58917.
CG4991 (GeneID 32695) [DRSC19928] showed mean Z score -0.565; ATP luminescence, replicate 1 = 37502; ATP luminescence, replicate 2 = 40056.
CG4991 (GeneID 32695) [DRSC39735] showed mean Z score -0.569; ATP luminescence, replicate 1 = 48560; ATP luminescence, replicate 2 = 52607.
After knock-down of CG32987 (GeneID 318273) [DRSC22373] the results were mean Z score 0.344; ATP luminescence, replicate 1 = 64199; ATP luminescence, replicate 2 = 64422.
For CG32987 (GeneID 318273) [DRSC28687], the values are mean Z score -0.711; ATP luminescence, replicate 1 = 42714; ATP luminescence, replicate 2 = 58300.
Silencing of KaiR1D (GeneID 42473) [DRSC15516] gave: mean Z score -0.195; ATP luminescence, replicate 1 = 33679; ATP luminescence, replicate 2 = 47874.

A few values from the entries so far:
Entry for CG8630 (GeneID 41629) [DRSC16441] in “mean Z score”: 1.7 (active)
CG8389 (GeneID 36764) [DRSC22855], mean Z score → -0.0881
